According to the supplement of paper PMC12823440, “Inhibitors supercharge kinase turnover through native proteolytic circuits” (Nature, 2025):
Structures can show the parent of a compound that is named as a salt. The list shows a part of the results. Hit calls seldom repeat between salt and free forms of one compound.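 Kinases were expressed as nanoluciferase fusions in K562 cells and luminescence was read every 4 h between 2 and 18 h as percent of control, DMSO set to 100% and a positive control to 0%. A time point counts as decreased when the signal drops significantly (2 sigma). The hit call is the authors' own, does not follow from the count of time points alone, and its rule is not shown.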

The chains behind the UniProt entries cited, without tags or fusion partners. Where a name states a change or a piece, a line headed by the entry shows the natural chain unless it says otherwise.
UniProt P07948: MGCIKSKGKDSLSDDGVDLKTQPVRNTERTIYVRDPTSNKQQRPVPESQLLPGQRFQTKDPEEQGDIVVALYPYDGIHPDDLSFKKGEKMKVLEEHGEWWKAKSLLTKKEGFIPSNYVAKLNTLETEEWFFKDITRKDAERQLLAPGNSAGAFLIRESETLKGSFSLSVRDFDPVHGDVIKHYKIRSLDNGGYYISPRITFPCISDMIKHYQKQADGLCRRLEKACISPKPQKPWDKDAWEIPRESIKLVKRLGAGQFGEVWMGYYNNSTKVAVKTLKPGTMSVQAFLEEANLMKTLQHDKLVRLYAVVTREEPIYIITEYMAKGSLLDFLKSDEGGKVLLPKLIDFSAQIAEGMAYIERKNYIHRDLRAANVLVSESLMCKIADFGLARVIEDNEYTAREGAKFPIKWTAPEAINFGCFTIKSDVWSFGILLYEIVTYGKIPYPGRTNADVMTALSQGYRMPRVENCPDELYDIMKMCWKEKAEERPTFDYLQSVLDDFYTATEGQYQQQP
UniProt P28482, whole entry: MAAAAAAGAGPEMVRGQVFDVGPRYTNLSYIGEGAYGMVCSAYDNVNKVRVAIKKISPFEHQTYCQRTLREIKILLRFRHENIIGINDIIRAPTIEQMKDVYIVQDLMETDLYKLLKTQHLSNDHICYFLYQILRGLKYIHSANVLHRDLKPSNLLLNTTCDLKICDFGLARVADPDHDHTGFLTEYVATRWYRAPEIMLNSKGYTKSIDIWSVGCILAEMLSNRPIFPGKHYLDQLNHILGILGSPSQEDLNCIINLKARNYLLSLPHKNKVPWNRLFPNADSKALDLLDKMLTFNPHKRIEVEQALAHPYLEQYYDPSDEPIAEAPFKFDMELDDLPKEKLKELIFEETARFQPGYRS
UniProt P31152, whole entry: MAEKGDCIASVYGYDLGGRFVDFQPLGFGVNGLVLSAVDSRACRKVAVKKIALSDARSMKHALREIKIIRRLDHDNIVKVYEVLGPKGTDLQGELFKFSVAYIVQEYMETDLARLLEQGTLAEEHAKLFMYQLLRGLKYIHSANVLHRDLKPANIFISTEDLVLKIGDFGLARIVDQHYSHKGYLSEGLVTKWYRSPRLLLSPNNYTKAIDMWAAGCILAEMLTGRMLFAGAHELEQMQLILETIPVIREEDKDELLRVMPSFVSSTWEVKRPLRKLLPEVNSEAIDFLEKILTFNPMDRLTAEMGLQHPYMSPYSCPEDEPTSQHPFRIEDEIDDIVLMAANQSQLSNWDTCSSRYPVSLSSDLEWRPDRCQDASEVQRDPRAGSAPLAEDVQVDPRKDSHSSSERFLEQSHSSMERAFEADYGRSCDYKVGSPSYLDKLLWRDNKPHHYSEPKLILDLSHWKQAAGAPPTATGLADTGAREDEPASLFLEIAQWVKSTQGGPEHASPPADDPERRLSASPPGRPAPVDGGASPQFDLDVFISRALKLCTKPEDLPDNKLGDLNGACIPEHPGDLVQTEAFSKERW
UniProt P49137, whole entry, looked up: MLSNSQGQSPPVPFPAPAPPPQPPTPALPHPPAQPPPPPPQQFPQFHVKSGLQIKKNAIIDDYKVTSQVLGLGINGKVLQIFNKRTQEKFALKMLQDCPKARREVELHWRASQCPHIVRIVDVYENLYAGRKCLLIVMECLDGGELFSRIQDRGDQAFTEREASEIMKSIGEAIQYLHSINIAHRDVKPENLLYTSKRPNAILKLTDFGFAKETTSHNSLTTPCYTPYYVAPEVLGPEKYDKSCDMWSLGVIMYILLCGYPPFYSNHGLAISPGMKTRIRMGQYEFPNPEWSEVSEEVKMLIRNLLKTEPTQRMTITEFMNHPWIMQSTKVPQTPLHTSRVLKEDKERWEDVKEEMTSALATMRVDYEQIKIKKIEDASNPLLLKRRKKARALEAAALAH
UniProt Q16288, whole entry, looked up: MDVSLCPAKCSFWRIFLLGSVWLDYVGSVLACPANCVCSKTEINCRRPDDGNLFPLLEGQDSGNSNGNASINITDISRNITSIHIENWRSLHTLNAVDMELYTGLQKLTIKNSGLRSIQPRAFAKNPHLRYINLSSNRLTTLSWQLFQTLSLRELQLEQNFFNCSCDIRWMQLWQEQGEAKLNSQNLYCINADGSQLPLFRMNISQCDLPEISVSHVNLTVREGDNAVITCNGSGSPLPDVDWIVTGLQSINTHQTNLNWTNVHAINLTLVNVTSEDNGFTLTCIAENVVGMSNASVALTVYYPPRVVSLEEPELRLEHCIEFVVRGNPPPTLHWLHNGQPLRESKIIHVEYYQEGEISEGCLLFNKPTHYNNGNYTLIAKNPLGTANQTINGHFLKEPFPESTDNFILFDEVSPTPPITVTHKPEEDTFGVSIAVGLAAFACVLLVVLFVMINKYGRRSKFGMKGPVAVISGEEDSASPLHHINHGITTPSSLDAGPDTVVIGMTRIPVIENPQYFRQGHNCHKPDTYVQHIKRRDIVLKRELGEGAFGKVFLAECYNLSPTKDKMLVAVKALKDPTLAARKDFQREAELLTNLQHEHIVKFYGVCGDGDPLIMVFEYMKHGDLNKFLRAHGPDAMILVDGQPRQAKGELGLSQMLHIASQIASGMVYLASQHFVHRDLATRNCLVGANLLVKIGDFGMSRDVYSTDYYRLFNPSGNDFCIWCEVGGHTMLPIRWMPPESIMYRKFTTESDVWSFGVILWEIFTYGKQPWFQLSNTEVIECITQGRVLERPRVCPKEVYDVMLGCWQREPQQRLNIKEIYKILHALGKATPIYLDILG
UniProt O96013: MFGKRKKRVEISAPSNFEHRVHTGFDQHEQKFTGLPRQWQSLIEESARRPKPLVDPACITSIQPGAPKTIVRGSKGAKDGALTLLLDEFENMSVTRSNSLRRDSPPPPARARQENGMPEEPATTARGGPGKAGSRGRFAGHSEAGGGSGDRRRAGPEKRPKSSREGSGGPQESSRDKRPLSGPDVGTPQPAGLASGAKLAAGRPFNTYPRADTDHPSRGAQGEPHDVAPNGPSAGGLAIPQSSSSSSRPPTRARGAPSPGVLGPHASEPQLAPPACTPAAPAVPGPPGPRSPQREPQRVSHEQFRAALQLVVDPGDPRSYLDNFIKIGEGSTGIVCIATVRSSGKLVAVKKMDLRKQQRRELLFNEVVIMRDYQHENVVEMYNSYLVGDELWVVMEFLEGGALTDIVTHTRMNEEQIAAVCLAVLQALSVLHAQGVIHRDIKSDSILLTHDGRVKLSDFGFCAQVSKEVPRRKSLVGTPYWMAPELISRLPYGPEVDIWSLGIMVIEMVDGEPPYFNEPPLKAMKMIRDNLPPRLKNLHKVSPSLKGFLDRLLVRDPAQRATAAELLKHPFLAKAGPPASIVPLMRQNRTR
UniProt Q96KB5: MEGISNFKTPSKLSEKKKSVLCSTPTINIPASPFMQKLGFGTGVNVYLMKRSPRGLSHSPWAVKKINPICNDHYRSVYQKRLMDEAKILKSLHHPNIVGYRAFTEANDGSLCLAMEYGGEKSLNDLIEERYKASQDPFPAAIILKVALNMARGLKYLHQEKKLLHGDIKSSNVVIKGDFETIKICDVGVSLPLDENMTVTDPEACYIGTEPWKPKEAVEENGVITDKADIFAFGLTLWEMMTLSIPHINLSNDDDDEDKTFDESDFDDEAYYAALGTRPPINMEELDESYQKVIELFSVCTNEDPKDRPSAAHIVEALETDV
UniProt P09619, whole entry: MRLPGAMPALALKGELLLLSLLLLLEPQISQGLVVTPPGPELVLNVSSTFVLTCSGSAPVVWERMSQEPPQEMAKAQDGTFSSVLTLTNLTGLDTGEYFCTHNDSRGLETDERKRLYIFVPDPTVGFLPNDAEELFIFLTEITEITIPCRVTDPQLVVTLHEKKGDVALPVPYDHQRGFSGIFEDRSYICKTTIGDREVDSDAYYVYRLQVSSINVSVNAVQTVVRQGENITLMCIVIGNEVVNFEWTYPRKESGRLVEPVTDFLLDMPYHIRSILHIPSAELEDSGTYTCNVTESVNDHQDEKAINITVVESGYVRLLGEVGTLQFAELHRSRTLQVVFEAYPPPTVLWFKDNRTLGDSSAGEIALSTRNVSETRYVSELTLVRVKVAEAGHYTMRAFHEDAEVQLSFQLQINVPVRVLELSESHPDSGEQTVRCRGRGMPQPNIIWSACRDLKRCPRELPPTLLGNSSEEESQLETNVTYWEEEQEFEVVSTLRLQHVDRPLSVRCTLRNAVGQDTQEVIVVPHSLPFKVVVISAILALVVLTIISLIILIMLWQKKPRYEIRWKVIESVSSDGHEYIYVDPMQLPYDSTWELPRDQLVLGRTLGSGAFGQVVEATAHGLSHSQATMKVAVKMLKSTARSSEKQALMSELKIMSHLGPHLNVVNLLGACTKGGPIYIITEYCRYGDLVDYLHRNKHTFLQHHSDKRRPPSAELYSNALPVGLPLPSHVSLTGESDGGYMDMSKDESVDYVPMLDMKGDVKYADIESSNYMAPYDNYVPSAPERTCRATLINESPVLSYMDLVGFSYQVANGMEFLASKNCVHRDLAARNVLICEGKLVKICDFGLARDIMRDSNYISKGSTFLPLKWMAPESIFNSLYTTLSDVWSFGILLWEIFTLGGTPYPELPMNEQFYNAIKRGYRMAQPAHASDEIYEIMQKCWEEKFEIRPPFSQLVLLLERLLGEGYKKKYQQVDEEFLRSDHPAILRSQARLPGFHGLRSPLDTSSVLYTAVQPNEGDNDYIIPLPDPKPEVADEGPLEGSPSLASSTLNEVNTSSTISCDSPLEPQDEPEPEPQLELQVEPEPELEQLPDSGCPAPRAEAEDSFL
UniProt Q15118, whole entry, looked up: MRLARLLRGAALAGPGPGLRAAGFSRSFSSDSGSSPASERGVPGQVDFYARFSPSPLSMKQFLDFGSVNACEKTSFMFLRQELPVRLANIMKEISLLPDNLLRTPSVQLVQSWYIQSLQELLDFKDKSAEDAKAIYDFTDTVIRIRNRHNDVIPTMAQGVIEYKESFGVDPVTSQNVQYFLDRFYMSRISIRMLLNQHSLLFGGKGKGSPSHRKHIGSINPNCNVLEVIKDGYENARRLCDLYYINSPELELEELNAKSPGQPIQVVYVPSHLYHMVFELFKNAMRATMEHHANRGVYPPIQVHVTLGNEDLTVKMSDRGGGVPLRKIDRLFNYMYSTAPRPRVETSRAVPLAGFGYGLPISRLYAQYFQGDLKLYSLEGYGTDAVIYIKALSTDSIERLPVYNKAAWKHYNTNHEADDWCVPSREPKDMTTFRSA
UniProt Q9UBF8: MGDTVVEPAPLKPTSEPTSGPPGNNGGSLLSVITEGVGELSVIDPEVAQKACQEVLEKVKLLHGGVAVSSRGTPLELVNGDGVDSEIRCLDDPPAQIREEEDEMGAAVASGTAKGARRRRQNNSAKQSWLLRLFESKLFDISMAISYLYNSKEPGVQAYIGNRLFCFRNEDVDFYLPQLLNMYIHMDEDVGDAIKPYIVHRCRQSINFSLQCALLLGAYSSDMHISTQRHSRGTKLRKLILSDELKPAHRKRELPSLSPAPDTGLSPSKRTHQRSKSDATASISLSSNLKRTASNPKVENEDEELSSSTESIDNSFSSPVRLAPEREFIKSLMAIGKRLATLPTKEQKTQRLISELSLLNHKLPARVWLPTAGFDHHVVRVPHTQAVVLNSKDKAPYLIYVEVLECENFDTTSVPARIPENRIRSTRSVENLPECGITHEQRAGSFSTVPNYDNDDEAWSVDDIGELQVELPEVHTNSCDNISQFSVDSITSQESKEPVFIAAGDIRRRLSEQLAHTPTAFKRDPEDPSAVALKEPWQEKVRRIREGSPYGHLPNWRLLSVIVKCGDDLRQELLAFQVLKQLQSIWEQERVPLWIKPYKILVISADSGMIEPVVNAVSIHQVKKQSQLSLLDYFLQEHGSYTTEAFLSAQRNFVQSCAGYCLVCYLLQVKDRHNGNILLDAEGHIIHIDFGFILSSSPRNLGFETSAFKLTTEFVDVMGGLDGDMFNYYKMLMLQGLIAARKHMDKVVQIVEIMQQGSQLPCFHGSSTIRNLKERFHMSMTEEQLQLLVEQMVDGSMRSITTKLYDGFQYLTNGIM
UniProt Q13131: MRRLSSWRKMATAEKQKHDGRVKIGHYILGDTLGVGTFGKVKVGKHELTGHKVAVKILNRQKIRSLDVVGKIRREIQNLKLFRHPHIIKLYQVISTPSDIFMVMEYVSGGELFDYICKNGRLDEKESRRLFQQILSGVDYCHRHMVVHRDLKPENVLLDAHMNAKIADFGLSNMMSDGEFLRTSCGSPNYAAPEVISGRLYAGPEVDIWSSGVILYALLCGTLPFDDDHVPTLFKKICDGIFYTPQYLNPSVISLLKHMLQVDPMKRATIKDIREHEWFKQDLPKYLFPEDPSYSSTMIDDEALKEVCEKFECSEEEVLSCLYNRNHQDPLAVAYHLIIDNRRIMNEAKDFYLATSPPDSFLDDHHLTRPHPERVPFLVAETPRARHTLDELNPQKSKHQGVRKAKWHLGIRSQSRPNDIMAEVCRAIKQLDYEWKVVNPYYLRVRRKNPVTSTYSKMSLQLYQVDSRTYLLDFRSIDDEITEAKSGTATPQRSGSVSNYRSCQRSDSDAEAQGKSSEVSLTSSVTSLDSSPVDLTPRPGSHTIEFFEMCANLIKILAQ

How the values were obtained:
Experiment in all cases: number of time points (of 5) at which kinase-Nluc abundance scored as decreased, DMSO-normalised (count); higher = more persistent destabilization
Conditions in all cases: K562; 2-18 h
[1] = target: LMTK2 (UniProt Q8IWU2)
[2] = target: LYN (UniProt P07948)
[3] = target: MAP2K1 (UniProt Q02750)
[4] = target: MAP2K2 (UniProt P36507)
[5] = target: MAP4K2 (UniProt Q12851)
[6] = target: MAPK1 (UniProt P28482)
[7] = target: MAPK4 (UniProt P31152)
[8] = target: MAPKAPK2 (UniProt P49137)
[9] = target: MKNK1 (UniProt Q9BUB5)
[10] = target: NTRK2 (UniProt Q16620)
[11] = target: NTRK3 (UniProt Q16288)
[12] = target: PAK4 (UniProt O96013)
[13] = target: PBK (UniProt Q96KB5)
[14] = target: PDGFRB (UniProt P09619)
[15] = target: PDK1 (UniProt Q15118)
[16] = target: PDPK1 (UniProt O15530)
[17] = target: PIK4CA (UniProt P42356)
[18] = target: PIK4CB (UniProt Q9UBF8)
[19] = target: PLK1 (UniProt P53350)
[20] = target: PRKAA1 (UniProt Q13131)

Row | SMILES | number of time points [1] | number of time points [2] | number of time points [3] | number of time points [4] | number of time points [5] | number of time points [6] | number of time points [7] | number of time points [8] | number of time points [9] | number of time points [10] | number of time points [11] | number of time points [12] | number of time points [13] | number of time points [14] | number of time points [15] | number of time points [16] | number of time points [17] | number of time points [18] | number of time points [19] | number of time points [20]
1 | Cc1nc(NC(=O)NCCc2nnn(CCF)n2)sc1-c1ccc(S(C)(=O)=O)c(F)c1 (10 µM) | 0 | 0 | 0 | 0 | 0 | 0 | 0 | 0 | 0 | 0 | 0 | 0 | 0 | 0 | 0 | 0 | 0 | 0 | 0 | 0
2 | Cn1ncc(Cl)c1-c1cc(C(=O)N[C@H](CN)Cc2ccc(F)c(F)c2)sc1Cl (10 µM) | 0 | 0 | 0 | 0 | 0 | 0 | 0 | 0 | 0 | 0 | 0 | 0 | 0 | 0 | 0 | 0 | 1 | 1 | 1 | 0
3 | CC(C)c1ccc(CC(=O)N2CCN(c3ccc(C#N)nn3)CC2)cc1 (10 µM) | 0 | 0 | 0 | 0 | 0 | 0 | 0 | 0 | 0 | 0 | 0 | 0 | 0 | 0 | 0 | 0 | 0 | 0 | 0 | 0
4 | CC(C)N(C)c1nc2cc(C(=O)O)ccc2nc1-c1ccc(F)cc1 (10 µM) | 0 | 0 | 0 | 0 | 0 | 0 | 0 | 0 | 0 | 0 | 0 | 0 | 0 | 0 | 0 | 0 | 0 | 0 | 0 | 0
5 | O=C(Nc1ccc(Cl)cc1)C1CCCN(C(=O)c2cccc(-c3ccco3)c2)C1 (stereo not given) (2.5 µM) | 0 | 0 | 0 | 0 | 0 | 0 | 0 | 0 | 0 | 0 | 0 | 0 | 0 | 0 | 0 | 0 | 0 | 0 | 0 | 0
6 | O=C(Nc1ccc(Cl)c(Cl)c1)Nc1ccc2nnsc2c1 (10 µM) | 0 | 0 | 0 | 0 | 0 | 0 | 0 | 0 | 0 | 0 | 0 | 0 | 0 | 0 | 0 | 0 | 0 | 0 | 0 | 0
7 | COC(=O)[C@@]1(C)CC[C@]2(C(=O)O)CC[C@]3(C)C(=CC[C@@H]4[C@@]5(C)C[C@H](O)[C@H](O[C@@H]6OC[C@@H](O[C@@H]7O[C@H](CO)[C@@H](O)[C@H](O)[C@H]7O)[C@H](O)[C@H]6O)[C@@](C)(CO)[C@@H]5CC[C@]43C)[C@@H]2C1 [Esculentoside A] (10 µM) | 0 | 0 | 0 | 0 | 0 | 0 | 0 | 0 | 0 | 0 | 0 | 0 | 0 | 0 | 0 | 0 | 0 | 0 | 0 | 0
8 | O=C(Nc1cccc(-c2nncn2C2CC2)c1)c1cc(-n2cnc(C3CC3)c2)ccn1 (10 µM) | 0 | 0 | 0 | 0 | 0 | 0 | 0 | 0 | 0 | 0 | 0 | 0 | 0 | 0 | 0 | 0 | 0 | 0 | 0 | 0
9 | CC(C)C[C@H](NC(=O)[C@H](CCCCN)NC(=O)[C@H](CO)NC(=O)[C@@H](N)CC(C)C)C(N)=O [LSKL, Inhibitor of Thrombospondin (TSP-1) (TFA)] (10 µM) | 0 | 0 | 0 | 0 | 0 | 0 | 0 | 0 | 0 | 0 | 0 | 0 | 0 | 0 | 0 | 0 | 0 | 0 | 0 | 0
10 | COc1c(C)c(C(=O)c2ccc(N)c(C(=O)O)c2)n2ccccc12 (10 µM) | 0 | 0 | 0 | 0 | 0 | 0 | 0 | 0 | 0 | 0 | 0 | 0 | 0 | 0 | 0 | 0 | 0 | 0 | 0 | 0
11 | CCN(C)C(=O)c1ccc2c(C(=Nc3ccc(CN4CCCCC4)cc3)c3ccccc3)c(O)[nH]c2c1 (2.5 µM) | 0 | 0 | 0 | 0 | 0 | 0 | 0 | 0 | 0 | 0 | 0 | 0 | 0 | 0 | 0 | 0 | 0 | 0 | 0 | 0
12 | O=C(O)c1ccc(N2N=C(Cc3ccccc3)C(=Cc3ccc(-c4ccccc4F)o3)C2=O)cc1 (10 µM) | 0 | 0 | 0 | 0 | 0 | 0 | 0 | 0 | 0 | 0 | 0 | 0 | 0 | 0 | 0 | 0 | 0 | 0 | 0 | 0
13 | c1cc(-c2cnn3cc(-c4ccc(N5CCNCC5)cc4)cnc23)c2cccnc2c1 (2.5 µM) | 0 | 0 | 0 | 0 | 0 | 0 | 0 | 0 | 0 | 0 | 1 | 0 | 0 | 0 | 0 | 0 | 0 | 0 | 0 | 0
14 | CN(C)Cc1cccc(N=C(c2ccccc2)c2c(O)[nH]c3cc(C(N)=O)ccc23)c1 (10 µM) | 0 | 0 | 0 | 0 | 0 | 0 | 0 | 0 | 0 | 0 | 0 | 0 | 0 | 0 | 0 | 0 | 0 | 0 | 0 | 0
15 | CC(C)(C)c1cc(C(c2cc3c(cc2O)OCO3)N2CCOCC2)cc(C(C)(C)C)c1O (stereo not given) (2.5 µM) | 0 | 0 | 0 | 0 | 0 | 0 | 0 | 0 | 0 | 0 | 0 | 0 | 0 | 0 | 0 | 0 | 0 | 0 | 0 | 0
16 | CN(C)C(=O)c1ccc(S(=O)(=O)c2ccc(NC(=O)[C@@](C)(O)C(F)(F)F)c(Cl)c2)cc1 (10 µM) | 2 | 0 | 0 | 0 | 0 | 0 | 0 | 0 | 0 | 0 | 0 | 0 | 0 | 0 | 0 | 1 | 0 | 0 | 0 | 0
17 | COc1cc(N2CCC(O)CC2)ccc1Nc1cc(Nc2ccccc2S(=O)(=O)C(C)C)c2cc[nH]c2n1 (10 µM) | 0 | 0 | 0 | 0 | 0 | 0 | 0 | 0 | 0 | 0 | 0 | 0 | 0 | 0 | 0 | 0 | 0 | 0 | 0 | 0
18 | CCN1C(=O)CNc2ncc(-c3ccc(-c4nc[nH]n4)nc3C)nc21 [CC-115 (hydrochloride)] (2.5 µM) | 1 | 2 | 0 | 0 | 0 | 0 | 0 | 0 | 4 | 3 | 3 | 0 | 0 | 2 | 0 | 4 | 2 | 2 | 3 | 3
19 | COc1ccc(CNc2nc(N(CCO)CCO)nc3c2ncn3C(C)C)cc1 (2.5 µM) | 2 | 0 | 0 | 0 | 0 | 0 | 0 | 0 | 0 | 0 | 0 | 0 | 0 | 0 | 0 | 1 | 0 | 0 | 0 | 0
20 | CC[C@H](Nc1ncnc2[nH]cnc12)c1oc2ccccc2c(=O)c1-c1cccc(F)c1 [Tenalisib] (10 µM) | 0 | 0 | 0 | 0 | 0 | 0 | 0 | 0 | 0 | 0 | 0 | 0 | 0 | 0 | 0 | 0 | 0 | 0 | 0 | 0
21 | CC1=C(C(=O)Nc2ccc3[nH]ncc3c2)C(c2ccc(F)cc2)NC(=O)N1 (stereo not given) (10 µM) | 0 | 0 | 0 | 0 | 0 | 0 | 0 | 0 | 0 | 0 | 0 | 0 | 0 | 0 | 0 | 0 | 0 | 0 | 0 | 0
22 | CC(C)(C)C(=O)N1N=CC[C@H]1c1ccccc1 (10 µM) | 0 | 0 | 0 | 0 | 0 | 0 | 0 | 0 | 0 | 0 | 0 | 0 | 0 | 0 | 0 | 0 | 0 | 0 | 0 | 0
23 | CN1CCN(CCCNc2ncc(Cl)c(-c3cc4c(C(=O)NC5CC5)cccc4s3)n2)CC1 (10 µM) | 0 | 0 | 0 | 0 | 0 | 0 | 0 | 0 | 0 | 0 | 0 | 0 | 0 | 0 | 0 | 0 | 0 | 0 | 0 | 0
24 | CC(C)c1cnn2c(NCc3ccccc3-n3cccn3)nc(OC3CCCNC3)nc12 (stereo not given) (2.5 µM) | 1 | 0 | 0 | 0 | 0 | 0 | 0 | 0 | 0 | 0 | 0 | 0 | 0 | 2 | 0 | 0 | 2 | 0 | 0 | 0
